{"source": "patent US8779004B2", "about": "“Stable emulsion formulations” (Amgen, Inc., priority 2006, dated 2014)", "key": {"[1]": {"assay": "Effect of pH and buffer type on emulsion stability (pH, particle size before/after one autoclave cycle)", "format": "physicochemical", "settings": "after one autoclave cycle, TRIS 5 mM, 2% egg lecithin", "method": "Tables 6 summarizes the effect of pH and the buffer type on emulsion stability as measured by the particle size. Emulsions were made using 2% egg lecithin, 2.25% glycerin in water for injection. Particle size and pH were measured after one-autoclave cycle. For all emulsions, particle size before autoclaving as represented by D(4,3) was in a range of 0.30 to 0.45 μm. Emulsions were stable at high pH using TRIS and DEA buffer, and at low pH using phosphate buffer over varying concentrations of cinacalcet and soybean oil. Closer to pH 7 using phosphate buffer, increase in particle size was seen after autoclaving.\nParticle size data is reported as D(4,3) before and after one autoclaving cycle."}, "[2]": {"assay": "Short-term storage stability of emulsions (drug conc., pH, particle size)", "format": "physicochemical", "settings": "emulsion, DEA 0.30%, 12 weeks", "from_the_text": "This Example illustrates the effect of the storage temperature on short-term stability of the formulations of the invention as measured by pH and the size of the droplets. The results of short term stability of cinacalcet at different temperatures and varying TRIS buffer concentrations are presented in Table 8. Cinacalcet was stable in the emulsion formulation over 12 weeks. The pH of the emulsion is lower over time for both placebo and cinacalcet emulsions. The drop in pH is less at lower storage temperature and higher TRIS concentration.\nThe results of short-term stability of cinacalcet at different temperatures and varying DEA buffer concentrations are presented in Table 9. Cinacalcet was stable in the emulsion formulation over 12 weeks. pH of the emulsion is lower over time for both placebo and cinacalcet emulsion. The drop in pH is less at lower storage temperature and higher DEA concentration."}}, "note": "Further values from the same series stand in other lists."}
{"compound": "C[C@@H](NCCCc1cccc(C(F)(F)F)c1)c1cccc2ccccc12", "note": "[Cinacalcet, N-(1-(R)-(1-naphthyl)ethyl]-3-[3-(trifluoromethyl)phenyl]-1-aminopropane]", "values": [{"measurement": "D(4, 3)", "setting": "[1]; target cinacalcet 5 mg/mL, SBO conc. 5", "result": 0.31, "unit": "μm"}, {"measurement": "D(4, 3)", "setting": "[1]; target cinacalcet 10 mg/mL, SBO conc. 10", "result": 0.39, "unit": "μm"}, {"measurement": "pH", "setting": "[2]; 5° C.", "result": 9.08}, {"measurement": "pH", "setting": "[2]; 40° C.", "result": 8.81}]}
